Data as given in PubChem BioAssay AID1159590 (NIAID, 2016).

- Screen: 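Finding genes that mouse macrophage TLR2 agonist signalling relies on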
- System: mouse RAW264.7 macrophage reporter cells expressing GFP-p65 and a Tnf promoter-mCherry
- Knock-down reagent: single siRNA against mouse genes
- Duration: 48 to 72 hours after siRNA transfection, then 40 minutes of ligand
- Treatment: Pam3CSK4 (TLR2/1 agonist) for 40 minutes before fixation; dose not given
- Measurement: 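p65 nuclear translocation measured by high-content imaging, shown for each siRNA as a robust z-score averaged across replicates, relative to negative controls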
- Scale: p65 nuclear entry z-score: higher = more p65 moved into nuclei than in negative-control wells
- Call rule: In these data the active calls have p65 nuclear entry z-score, replicate mean at about -1.5 or lower, or at about 1.5 or higher
- Meaning of the calls: active = strong change, up or down; inactive = little change
The whole screen tested 756 reagents; shown is a random part of them. Of all reagents, 128 (17%) got an active call. 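Calls are two-sided: both reduced and increased p65 nuclear entry count as active.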 The numbers tell different reagents against one gene apart. Not stated in the record: the amount of reagent.

gene | reagent no. | p65 nuclear entry z-score, replicate mean | outcome
Elf4 (E74 like ETS transcription factor 4) | 1 | -0.87 | inactive
Elf4 (E74 like ETS transcription factor 4) | 2 | 0.151 | inactive
Elf4 (E74 like ETS transcription factor 4) | 3 | -0.866 | inactive
Elf4 (E74 like ETS transcription factor 4) | 4 | -1.48 | inactive
Elf4 (E74 like ETS transcription factor 4) | 5 | -0.271 | inactive
Elf4 (E74 like ETS transcription factor 4) | 6 | -1.64 | active
Atf7 (activating transcription factor 7) | 1 | -1.71 | active
Atf7 (activating transcription factor 7) | 2 | -1.06 | inactive
Atf7 (activating transcription factor 7) | 3 | 0.097 | inactive
Atf7 (activating transcription factor 7) | 4 | -0.0173 | inactive
Atf7 (activating transcription factor 7) | 5 | 6.52 | active
Atf7 (activating transcription factor 7) | 6 | 0.0653 | inactive
Map2k6 (mitogen-activated protein kinase kinase 6) | 1 | -1.55 | active
Map2k6 (mitogen-activated protein kinase kinase 6) | 2 | -1.3 | inactive
Map2k6 (mitogen-activated protein kinase kinase 6) | 3 | -0.103 | inactive
Map2k6 (mitogen-activated protein kinase kinase 6) | 4 | -0.564 | inactive
Map2k6 (mitogen-activated protein kinase kinase 6) | 5 | 1.07 | inactive
Map2k6 (mitogen-activated protein kinase kinase 6) | 6 | 0.215 | inactive
Pik3r5 (phosphoinositide-3-kinase regulatory subunit 5) | 1 | 0.529 | inactive
Pik3r5 (phosphoinositide-3-kinase regulatory subunit 5) | 2 | 2.11 | active
Pik3r5 (phosphoinositide-3-kinase regulatory subunit 5) | 3 | 0.0466 | inactive
Pik3r5 (phosphoinositide-3-kinase regulatory subunit 5) | 4 | 0.479 | inactive
Pik3r5 (phosphoinositide-3-kinase regulatory subunit 5) | 5 | -2.2 | active
Pik3r5 (phosphoinositide-3-kinase regulatory subunit 5) | 6 | -0.347 | inactive
Ets1 (Ets proto-oncogene 1, transcription factor) | 1 | 0.155 | inactive
Ets1 (Ets proto-oncogene 1, transcription factor) | 2 | 0.876 | inactive
Ets1 (Ets proto-oncogene 1, transcription factor) | 3 | -1.53 | active
Ets1 (Ets proto-oncogene 1, transcription factor) | 4 | 2.82 | active
Ets1 (Ets proto-oncogene 1, transcription factor) | 5 | -2.17 | active
Ets1 (Ets proto-oncogene 1, transcription factor) | 6 | -0.151 | inactive
Mapk10 (mitogen-activated protein kinase 10) | 1 | 0.799 | inactive
Mapk10 (mitogen-activated protein kinase 10) | 2 | 0.994 | inactive
Mapk10 (mitogen-activated protein kinase 10) | 3 | -1.43 | inactive
Mapk10 (mitogen-activated protein kinase 10) | 4 | 0.17 | inactive
Mapk10 (mitogen-activated protein kinase 10) | 5 | -0.832 | inactive
Mapk10 (mitogen-activated protein kinase 10) | 6 | -1.22 | inactive
Akt2 (Akt serine/threonine kinase 2) | 1 | -0.977 | inactive
Akt2 (Akt serine/threonine kinase 2) | 2 | 0.447 | inactive
Akt2 (Akt serine/threonine kinase 2) | 3 | 0.0604 | inactive
Akt2 (Akt serine/threonine kinase 2) | 4 | 1.78 | active
Akt2 (Akt serine/threonine kinase 2) | 5 | 7.87 | active
Akt2 (Akt serine/threonine kinase 2) | 6 | 2.05 | active
Cyld (CYLD lysine 63 deubiquitinase) | 1 | 0.198 | inactive
Cyld (CYLD lysine 63 deubiquitinase) | 2 | -0.344 | inactive
Cyld (CYLD lysine 63 deubiquitinase) | 3 | 0.0303 | inactive
Cyld (CYLD lysine 63 deubiquitinase) | 4 | -1.1 | inactive
Cyld (CYLD lysine 63 deubiquitinase) | 5 | -1.38 | inactive
Cyld (CYLD lysine 63 deubiquitinase) | 6 | -0.431 | inactive
Elk1 (ETS transcription factor ELK1) | 1 | -0.121 | inactive
Elk1 (ETS transcription factor ELK1) | 2 | -0.602 | inactive
Elk1 (ETS transcription factor ELK1) | 3 | 0.902 | inactive
Elk1 (ETS transcription factor ELK1) | 4 | 4.25 | active
Elk1 (ETS transcription factor ELK1) | 5 | -0.332 | inactive
Elk1 (ETS transcription factor ELK1) | 6 | -0.594 | inactive
Tab3 (TGF-beta activated kinase 1/MAP3K7 binding protein 3) | 1 | -0.415 | inactive
Tab3 (TGF-beta activated kinase 1/MAP3K7 binding protein 3) | 2 | -1.14 | inactive
Tab3 (TGF-beta activated kinase 1/MAP3K7 binding protein 3) | 3 | -0.595 | inactive
Tab3 (TGF-beta activated kinase 1/MAP3K7 binding protein 3) | 4 | 0.105 | inactive
Tab3 (TGF-beta activated kinase 1/MAP3K7 binding protein 3) | 5 | 0.279 | inactive
Tab3 (TGF-beta activated kinase 1/MAP3K7 binding protein 3) | 6 | -0.337 | inactive
Chuk (conserved helix-loop-helix ubiquitous kinase) | 1 | -0.0716 | inactive
Chuk (conserved helix-loop-helix ubiquitous kinase) | 2 | -1.82 | active
Chuk (conserved helix-loop-helix ubiquitous kinase) | 3 | 0.253 | inactive
Chuk (conserved helix-loop-helix ubiquitous kinase) | 4 | 1.48 | inactive
Chuk (conserved helix-loop-helix ubiquitous kinase) | 5 | -1.84 | active
Chuk (conserved helix-loop-helix ubiquitous kinase) | 6 | -0.521 | inactive
Lbp (lipopolysaccharide binding protein) | 1 | -0.526 | inactive
Lbp (lipopolysaccharide binding protein) | 2 | -1.45 | inactive
Lbp (lipopolysaccharide binding protein) | 3 | 0.929 | inactive
Lbp (lipopolysaccharide binding protein) | 4 | -0.609 | inactive
Lbp (lipopolysaccharide binding protein) | 5 | 1.68 | active
Lbp (lipopolysaccharide binding protein) | 6 | -0.557 | inactive

Entries listed so far with an active call:
gene | reagent no. | p65 nuclear entry z-score, replicate mean | outcome
Elf4 (E74 like ETS transcription factor 4) | 6 | -1.64 | active
Atf7 (activating transcription factor 7) | 1 | -1.71 | active
Atf7 (activating transcription factor 7) | 5 | 6.52 | active
Map2k6 (mitogen-activated protein kinase kinase 6) | 1 | -1.55 | active
Pik3r5 (phosphoinositide-3-kinase regulatory subunit 5) | 2 | 2.11 | active
Pik3r5 (phosphoinositide-3-kinase regulatory subunit 5) | 5 | -2.2 | active
Ets1 (Ets proto-oncogene 1, transcription factor) | 3 | -1.53 | active
Ets1 (Ets proto-oncogene 1, transcription factor) | 4 | 2.82 | active
Ets1 (Ets proto-oncogene 1, transcription factor) | 5 | -2.17 | active
Akt2 (Akt serine/threonine kinase 2) | 4 | 1.78 | active
Akt2 (Akt serine/threonine kinase 2) | 5 | 7.87 | active
Akt2 (Akt serine/threonine kinase 2) | 6 | 2.05 | active
Elk1 (ETS transcription factor ELK1) | 4 | 4.25 | active
Chuk (conserved helix-loop-helix ubiquitous kinase) | 2 | -1.82 | active
Chuk (conserved helix-loop-helix ubiquitous kinase) | 5 | -1.84 | active
Lbp (lipopolysaccharide binding protein) | 5 | 1.68 | active

Further records follow:
gene | reagent no. | p65 nuclear entry z-score, replicate mean | outcome
Otud5 (OTU domain containing 5) | 1 | -0.907 | inactive
Otud5 (OTU domain containing 5) | 2 | 1.82 | active
Otud5 (OTU domain containing 5) | 3 | 0.124 | inactive
Otud5 (OTU domain containing 5) | 4 | -0.114 | inactive
Otud5 (OTU domain containing 5) | 5 | 0.623 | inactive
Otud5 (OTU domain containing 5) | 6 | 2.23 | active
Dab2ip (disabled 2 interacting protein) | 1 | -0.834 | inactive
Dab2ip (disabled 2 interacting protein) | 2 | 0.503 | inactive
Dab2ip (disabled 2 interacting protein) | 3 | -0.979 | inactive
Dab2ip (disabled 2 interacting protein) | 4 | 6.1 | active
Dab2ip (disabled 2 interacting protein) | 5 | 1.96 | active
Dab2ip (disabled 2 interacting protein) | 6 | -0.654 | inactive
Fadd (Fas associated via death domain) | 1 | -0.782 | inactive
Fadd (Fas associated via death domain) | 2 | -0.217 | inactive
Fadd (Fas associated via death domain) | 3 | -0.728 | inactive
Fadd (Fas associated via death domain) | 4 | -0.59 | inactive
Fadd (Fas associated via death domain) | 5 | -1.56 | active
Fadd (Fas associated via death domain) | 6 | -0.219 | inactive
Map2k7 (mitogen-activated protein kinase kinase 7) | 1 | 0.969 | inactive
Map2k7 (mitogen-activated protein kinase kinase 7) | 2 | -0.769 | inactive
Map2k7 (mitogen-activated protein kinase kinase 7) | 3 | 0.0374 | inactive
Map2k7 (mitogen-activated protein kinase kinase 7) | 4 | 0.761 | inactive
Map2k7 (mitogen-activated protein kinase kinase 7) | 5 | 0.413 | inactive
Map2k7 (mitogen-activated protein kinase kinase 7) | 6 | -1.29 | inactive
Nfkb2 | 1 | 0.11 | inactive
Nfkb2 | 2 | -0.088 | inactive
Nfkb2 | 3 | -0.543 | inactive
Nfkb2 | 4 | 1.34 | inactive
Nfkb2 | 5 | -0.895 | inactive
Nfkb2 | 6 | 0.916 | inactive
Peli1 (pellino 1) | 1 | -0.982 | inactive
Peli1 (pellino 1) | 2 | -0.544 | inactive
Peli1 (pellino 1) | 3 | -0.091 | inactive
Peli1 (pellino 1) | 4 | 0.404 | inactive
Peli1 (pellino 1) | 5 | -1.76 | active
Peli1 (pellino 1) | 6 | 0.816 | inactive
Map2k2 (mitogen-activated protein kinase kinase 2) | 1 | 0.227 | inactive
Map2k2 (mitogen-activated protein kinase kinase 2) | 2 | -0.781 | inactive
Map2k2 (mitogen-activated protein kinase kinase 2) | 3 | -0.489 | inactive
Map2k2 (mitogen-activated protein kinase kinase 2) | 4 | 2.91 | active
Map2k2 (mitogen-activated protein kinase kinase 2) | 5 | -0.157 | inactive
Map2k2 (mitogen-activated protein kinase kinase 2) | 6 | -0.797 | inactive
Tlr2 (toll-like receptor 2) | 1 | -3.3 | active
Tlr2 (toll-like receptor 2) | 2 | -2.24 | active
Tlr2 (toll-like receptor 2) | 3 | -1.1 | inactive
Tlr2 (toll-like receptor 2) | 4 | -1.88 | active
Tlr2 (toll-like receptor 2) | 5 | 2.09 | active
Tlr2 (toll-like receptor 2) | 6 | -1.69 | active
Tlr6 (toll-like receptor 6) | 1 | -2.58 | active
Tlr6 (toll-like receptor 6) | 2 | -1.5 | inactive
Tlr6 (toll-like receptor 6) | 3 | -3.05 | active
Tlr6 (toll-like receptor 6) | 4 | 1.12 | inactive
Tlr6 (toll-like receptor 6) | 5 | -1.22 | inactive
Tlr6 (toll-like receptor 6) | 6 | -1.45 | inactive
Tnf (tumor necrosis factor) | 1 | -1.28 | inactive
Tnf (tumor necrosis factor) | 2 | -1.07 | inactive
Tnf (tumor necrosis factor) | 3 | -0.922 | inactive
Tnf (tumor necrosis factor) | 4 | -2.11 | active
Tnf (tumor necrosis factor) | 5 | -1.74 | active
Tnf (tumor necrosis factor) | 6 | -0.185 | inactive
Ikbke (inhibitor of kappaB kinase epsilon) | 1 | -0.667 | inactive
Ikbke (inhibitor of kappaB kinase epsilon) | 2 | -0.318 | inactive
Ikbke (inhibitor of kappaB kinase epsilon) | 3 | -0.587 | inactive
Ikbke (inhibitor of kappaB kinase epsilon) | 4 | -0.156 | inactive
Ikbke (inhibitor of kappaB kinase epsilon) | 5 | -0.819 | inactive
Ikbke (inhibitor of kappaB kinase epsilon) | 6 | 1.43 | inactive
Mapk12 (mitogen-activated protein kinase 12) | 1 | -0.221 | inactive
Mapk12 (mitogen-activated protein kinase 12) | 2 | -0.116 | inactive
Mapk12 (mitogen-activated protein kinase 12) | 3 | 0.571 | inactive
Mapk12 (mitogen-activated protein kinase 12) | 4 | -0.324 | inactive
Mapk12 (mitogen-activated protein kinase 12) | 5 | -0.314 | inactive
Mapk12 (mitogen-activated protein kinase 12) | 6 | -0.431 | inactive
